Experiment [1] has as its target T1, control peptide p333.
T1 sequence (peptide): EGLNRPSGGCG
Nature of the experiment: ELISA; peptides p344 or p333 immobilised (2 ug/mL in PBS pH 9.5) on glutaraldehyde-treated 96-well plates; CTLA-4Fc or B7-1Fc added at different concentrations, 1 h at 37 C; detected with anti-human IgG HRP; both purified. Background: ELISA stands for enzyme-linked immunosorbent assay.

Sequences of proteins named here, by UniProt entry; tags and fusion partners are left off. Residues count along the entry.
UniProt P16410, residues 36-161: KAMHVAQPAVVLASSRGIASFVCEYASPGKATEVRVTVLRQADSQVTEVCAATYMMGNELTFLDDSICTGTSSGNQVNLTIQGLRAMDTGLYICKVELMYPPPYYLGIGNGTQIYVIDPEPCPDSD

The target in experiment [2] is T2, synthetic peptide p344.
T2 sequence (peptide): ARHPSWYRPFEGCG
The description is as above.

Experiment [3] has as its target T1, control peptide p333. Nature of the experiment: peptide or protein array; CTLA-4Fc applied on microarrays of 330034 peptides with random sequences; detected with fluorescence-labeled mAb against human IgG; both purified.
The target of experiment [4] is T2, synthetic peptide p344. The experiment is described as above.

These are yes or no findings as the source states them, for the method shown. Some entries that bind do so weakly or less than the wild type.

On to “recombinant fusion protein B7-1Fc (from UniProt P33681 35-242) (Fc fusion)”, for which the binding result in experiment [1] and in experiment [2] was “no binding” throughout.
As to “recombinant fusion protein CTLA-4Fc (from UniProt P16410 36-161) (Fc fusion)”, the binding entry in experiment [3] is reported as “no binding”; in experiment [4], “binds”; in experiment [1], “no binding”; in experiment [2], “binds”.

The values are drawn from PMC7825301.
